Reference: publication PMC7766112
Results are given in words; binding and its absence hold for the method and conditions named. Binding can be weak; no strength is given. For some assays here: In cells and extracts the contact can be indirect. For some assays here: Tags and fused reporters may be left off the sequences shown.

Columns and labels:
[1] = target: PsBELL1-2 transcription factor (Pisum sativum); test: two-hybrid; GAL4-based yeast two-hybrid, pDEST22 (prey) and pDEST32 (bait) in S. cerevisiae pJ6969-4A; growth on selective media SC-LTH and SC-LTAH, serial dilutions OD600 0.1 and 0.05
[2] = target: PsBELL1-2 tagged with 6HIS (Pisum sativum); test: co-IP; E. coli lysates (50 mM tris-HCl pH 8.0, 1% Triton X-100, 150 mM NaCl) with PsBELL1-2-6HIS and PsDELLA1-FLAG co-incubated with anti-HIS MicroBeads (µMACS) for 1 h on ice; immunoblot with anti-FLAG and anti-HIS

| Binder | binding [1] | binding [2] |
| --- | --- | --- |
| PsDELLA1 (LA) protein (protein, UniProt B2BA72 1-592) MKRDRQETSGGGVSSNNNNSDNIISNNFVSVRGECSSMQNNNNNGKQSLWSEEKENSGGMDELLAALGYKVRSSDMLDVAQKLEQLEMVMGSAQEEGINHLASDTVHYDPTDLYSWVQTMLTELNPSTDSQINDPLDSSSSIFNDNSQYDLSVIPGMAAYPPQSHNQNSESEGSNSNKRLKTWGSETESEDIFLPALSPPAETTRPVVLVDSQETGVRLIHTMMACADAIQRDDIKIADRLVKNIGILASSQTGAMGKVASYFAQALYRRICRVSPDETLDSSLSDALHMHFYESSPYLKFAHFTANQAILEAFAGAGSVHVIDFGLKQGMQWPALMQALALRPGGPPTFRLTGIGPPQTGNTDALQQVGWKLAQLAQTIGVQFEFRGFVCNSLADLDPNMLEIRPGEAVAVNSVFELHTMLARPGSIDKVLNTVKKINPKIVTIVEQEANHNGPVFMDRFTEALHYYSSLFDSLEGSSNSNPAGSGSSSQDLLMSELYLGRQICNVVAYEGVDRVERHETLSQWRSRMGSAGFDPVHLGSNAFKQASTLLALFAGGDGYRVEENNGCLMLGWHTRSLIATSAWKLPLSESK | binds | – |
| PsDELLA1 tagged with FLAG (protein, UniProt B2BA72 1-592) MKRDRQETSGGGVSSNNNNSDNIISNNFVSVRGECSSMQNNNNNGKQSLWSEEKENSGGMDELLAALGYKVRSSDMLDVAQKLEQLEMVMGSAQEEGINHLASDTVHYDPTDLYSWVQTMLTELNPSTDSQINDPLDSSSSIFNDNSQYDLSVIPGMAAYPPQSHNQNSESEGSNSNKRLKTWGSETESEDIFLPALSPPAETTRPVVLVDSQETGVRLIHTMMACADAIQRDDIKIADRLVKNIGILASSQTGAMGKVASYFAQALYRRICRVSPDETLDSSLSDALHMHFYESSPYLKFAHFTANQAILEAFAGAGSVHVIDFGLKQGMQWPALMQALALRPGGPPTFRLTGIGPPQTGNTDALQQVGWKLAQLAQTIGVQFEFRGFVCNSLADLDPNMLEIRPGEAVAVNSVFELHTMLARPGSIDKVLNTVKKINPKIVTIVEQEANHNGPVFMDRFTEALHYYSSLFDSLEGSSNSNPAGSGSSSQDLLMSELYLGRQICNVVAYEGVDRVERHETLSQWRSRMGSAGFDPVHLGSNAFKQASTLLALFAGGDGYRVEENNGCLMLGWHTRSLIATSAWKLPLSESK | – | binds |
